At least one structure is not confirmed: it was looked up by name or label, or the drawing left a doubt.
Biological target: T1, yqeJ NaMN AT (Bacillus subtilis, UniProt P54455)
T1 construct: made in house; host or cells: E. coli BL21(DE3), vector pML208 (modified pET16b)
Assay: Discontinuous HPLC adenylyl transferase assay
Type: biochemical
Conditions: reverse reaction: 1 mM sodium pyrophosphate and 0.5 mM substrate, 0.18 mg/ml yqeJ, 30 minutes, 37° C.
Procedure: FIGS. 3A, 3B, 3C and 3D provides the results of HPLC analysis of yqeJ NaMN AT adenylyl transferase activity. 0.36 mg/ml yqeJ NaMN AT was incubated with 1 mM ATP and 1 mM NaMN (3A) or 1 mM NMN (3B) for 30 minutes.
Discontinuous HPLC assay. The discontinuous HPLC assay is based upon the assays published by Mehl et al. (12) and Balducci et al. (18). Reaction conditions were 20 mM Hepes, pH 7.4, 10 mM MgCl2, and 0.36 or 0.18 mg/ml yqeJ protein incubated at 37° C. For the forward reaction, the incubations contained 1 mM ATP and 1 mM NaMN or NMN. […] The reactants and products were separated by chromatography on a 3.9×150 mm C18 column (Novapack 5 μm, Waters Inc). Buffer A 100 mM potassium phosphate pH 7.5. Buffer B 100 mM potassium phosphate pH 7.5 in 20% MeOH. The elution conditions were: 0 to 3 min in 100% A, 3.0 to 3.1 min to 100% B, 3.1 to 7 min 100% B. The absorbance of reactants and products was detected at 254 nm.

Amino acid sequences for entries named in this document (tags omitted). Chains listed by the source or under a name are the forms on record and can include a tag or linker.
UniProt P54455, other isoform, or with tags, fused parts or gaps: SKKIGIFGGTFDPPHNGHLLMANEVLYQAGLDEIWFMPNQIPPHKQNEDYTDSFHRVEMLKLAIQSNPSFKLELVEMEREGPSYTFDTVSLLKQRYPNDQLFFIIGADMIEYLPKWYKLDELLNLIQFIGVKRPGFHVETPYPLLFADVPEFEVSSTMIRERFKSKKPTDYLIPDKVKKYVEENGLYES

NC(=O)c1ccc[n+]([C@@H]2O[C@H](COP(=O)([O-])OP(=O)(O)OC[C@H]3O[C@@H](n4cnc5c(N)ncnc54)[C@H](O)[C@@H]3O)[C@@H](O)[C@H]2O)c1 [NAD, Nicotinamide adenine dinucleotide]
conversion of substrate by yqeJ, detected by HPLC: converted to NMN and ATP

From US7155346B2, “Crystal structure of yqeJ and uses thereof” (Wyeth, priority 2001, dated 2006)
